# From patent US6709814B1 (Rigel Pharmaceuticals, Inc., priority 1998, dated 2004)
# Ends that are not written are not given here.
# Test: general procedure: Fmoc solid-phase peptide synthesis; Pre-loaded Fmoc-Xaa-Wang-resins; H-Pro-2-Cl-Trt-resin for C-terminal Pro peptides (Novabiochem); DIC/HOBt; HBTU/HOBt in difficult situations
# Conditions: whole synthesis
sequence,measurement,value
EFLIVKSSTKSIPPQSEFLIVKS,final LC-MS purity,over 99% pure
